{"source": "paper PMC5472279", "about": "“Genetic, structural, and chemical insights into the dual function of GRASP55 in germ cell Golgi remodeling and JAM-C polarized localization during spermatogenesis” (PLoS Genetics, 2017)", "key": {"[1]": {"molecular_target": "T1, Biotinylated JAM-A carboxy-terminal peptide lacking the three last amino acids", "T1 sequence (peptide, Biotin at the N-terminus)": "SQPSTRSEGEFKQTSS", "experiment": "affinity purification with mass spectrometry; biotinylated peptides on streptavidin Sepharose beads; 1 mL mouse testis lysate (5 mg protein), 2 h; 50 mM HEPES pH 7.3, 10% glycerol, 0.1 mM EDTA, 150 mM NaCl, 1% Triton X100; LC-MSMS; only the target purified"}, "[2]": {"molecular_target": "T2, Biotinylated JAM-B carboxy-terminal peptide lacking the three last amino acids (mouse)", "T2 sequence (peptide, Biotin at the N-terminus)": "SKVTTMSENDFKHTKS", "experiment": "affinity purification with mass spectrometry; biotinylated peptides on streptavidin Sepharose beads; 1 mL mouse testis lysate (5 mg protein), 2 h; 50 mM HEPES pH 7.3, 10% glycerol, 0.1 mM EDTA, 150 mM NaCl, 1% Triton X100; LC-MSMS; only the target purified"}}, "note": "No constants are given. Whether binding was seen depends on the method and setting. In cells and extracts the contact can be indirect. These calls come from enrichment with a bait or labelling near it, and not all partners need be listed. No binding means not detected with the bait.", "data": [{"binder": "ZO-2, endogenous in mouse testis (protein, UniProt Q9Z0U1 1-1167) MEEVIWEQYTVTLQKDSKRGFGIAVSGGRDNPHFENGETSIVISDVLPGGPADGLLQENDRVVMVNGTPMEDVLHSFAVQQLRKSGKIAAIVVKRPRKVQVAPLQGSPPLSHDDRGFEVIEEFDGRSFRSGYSERSRHSSHDMLSHSWEGNRERGRPHQRTQSRERERSRGRSLERGLDQEDYGRSRERSRGRSLERGLDRDFVSRDHSRGRSIDRDYDRDYERSYHEAYEPDYGGGYSPSYDRRAHPETRYERSRSREHLRSRSPSPESRSRHEHKGQHDPDRPIGVLLTKSKANEEYGLRLGSQIFIKEMTRTGLATKDGNLHEGDIILKINGTVTENMSLTDARKLIEKSRGKLQLVVLRDSKQTLINIPALNDSDSEVEDISEIESNRSFSPEERRQQYSDQDYHSSTEKLKERPSSREETSGRLSRMGATPTPFKSTGDITAAGVTEASREPRYQEEGPVPQPRTAPRVFLRPSPEDEAIYGPNTKMVRFKKGDSVGLRLAGGNDVGIFVAGIQEGTSAEQEGLQEGDQILKVNTQDFRGLVREDAVLYLLEIPKGETVTILAQSRADVYRDILACGRGDSFFIRSHFECEKETPQSLAFTRGEVFRVVDTLYDGKLGHWLAVRIGNELEKGLIPNKSRAEQMASVQNAQRENAGDRADFWRMRGQRSSGGVKKNLRKSREDLAAAVSVSTKFPAYEKVLLREAGFKRPVVLFGPIADIAMERLATELPDLFQTAKTEPKDAGSEKSSGVVRLNTVRQIIEQDKHALLDVTPKAVDLLNYTQWFPIVIFFNPDSRQGVKTIRQRLSPTSNKSSRKLFDQANKLKKTCSHLFTATINVNSANDGWFGSLKDSIQQQQNEAVWVSEGKMEGMDDDAEDRMSYLTAMGADYLSCDSRLISDFEDTDGEGGAYTDNELEEPAEEPLVSSITRSSEPVQHEENIRKSSPEPRAQMRRAASRDQLRDASPPPAFKPEPPKARSQNREDSFDYSKSNLPATAGSEIPGGSTKGYPPPIAAKPAFGRPILKPSTPVPMPESEEVGESTEEQEDAPRSVLGRVKIFEKMDHKAKLQRMQELQEAQNARIEIAQKHPDIYAVPIKAPKPDAGLPPHMSSRPPEPQKAPSRLYQDTRGSYGSDPEEEEYRQQLAAHSKRGYYSQPSRYRDTEL", "values": [{"measurement": "binding", "setting": "[1]", "value": "no binding"}, {"measurement": "binding", "setting": "[2]", "value": "no binding"}]}]}
